Test results reported in paper PMC8576004.
Numbering of substitutions follows the chain as printed. Names and notes keep the numbering of the source. Results are given in words; binding and its absence hold for the method and conditions named. For some assays here: In cells and extracts the contact can be indirect. Some binding calls cover weakened binding; strength is not graded here. For some assays here: Where a sequence is shown, tags or fusion partners need not be part of it.

Tests used:
[1] = biological target: T1, GST-tagged USP domain (aa 756–1118) of USP8 (human) (UniProt P40818); assay: pull-down; HEK293T lysates with the myc-tagged prey incubated with 5 μM GST-tagged USP domain at 4 °C for 2 h, then glutathione sepharose 4B 90 min; washed five times with lysis buffer (50 mM Tris-HCl pH 7.4, 150 mM NaCl, 50 mM NaF, 1% Triton X-100); immunoblotting; only the target purified
T1 sequence: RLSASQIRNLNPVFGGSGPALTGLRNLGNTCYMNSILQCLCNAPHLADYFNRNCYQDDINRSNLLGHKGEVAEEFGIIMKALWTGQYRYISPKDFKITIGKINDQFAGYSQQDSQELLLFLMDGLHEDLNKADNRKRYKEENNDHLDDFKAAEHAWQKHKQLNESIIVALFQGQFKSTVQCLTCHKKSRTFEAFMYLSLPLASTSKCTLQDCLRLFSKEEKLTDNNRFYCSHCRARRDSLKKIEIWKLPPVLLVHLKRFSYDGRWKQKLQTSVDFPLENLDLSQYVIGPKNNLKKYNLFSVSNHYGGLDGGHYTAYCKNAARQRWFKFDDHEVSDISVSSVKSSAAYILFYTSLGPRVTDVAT

FRIP8^P955A (human) = FRIP8^P955A (human) (UniProt P40818); assay: FRET or BRET; single-molecule FRET probes in cell lysates: EYFP on the WW-like domain and ECFP inside the USP domain of ONE chain; excitation 433 nm, emission 460-570 nm; trypsinised lysate as negative control; FRET ratio EYFP/ECFP; the paper speculates that the interaction is intramolecular; 100 μM R18 reduced the FRET signal of FRIP8
FRIP8^L1063A (human) = FRIP8^L1063A (human) (UniProt P40818); assay: as above
[2] = biological target: FRIP8 with deletion of Ser^718 (ΔS718) (human) (UniProt P40818); assay: as above
His-tagged FRIP8 (human) = His-tagged FRIP8 (human) (UniProt P40818); assay: FRET or BRET; purified His-tagged FRIP8, with or without labelling by 1 μM Ub-VME (TBS, 1 mM DTT, 37 °C, 30 min); FRET between the WW-like and USP domains of one chain; both purified
[3] = biological target: FRET-based intramolecular interaction probe of USP8 (FRIP8) (human) (UniProt P40818); assay: FRET or BRET; single-molecule FRET probes in cell lysates: EYFP on the WW-like domain and ECFP inside the USP domain of ONE chain; excitation 433 nm, emission 460-570 nm; trypsinised lysate as negative control; FRET ratio EYFP/ECFP; the paper speculates that the interaction is intramolecular; 100 μM R18 reduced the FRET signal of FRIP8

B1: myc-tagged USP8^1–714 (WT) (domain or fragment, UniProt P40818 1-714)
chain: MPAVASVPKELYLSSSLKDLNKKTEVKPEKISTKSYVHSALKIFKTAEECRLDRDEERAYVLYMKYVTVYNLIKKRPDFKQQQDYFHSILGPGNIKKAVEEAERLSESLKLRYEEAEVRKKLEEKDRQEEAQRLQQKRQETGREDGGTLAKGSLENVLDSKDKTQKSNGEKNEKCETKEKGAITAKELYTMMTDKNISLIIMDARRMQDYQDSCILHSLSVPEEAISPGVTASWIEAHLPDDSKDTWKKRGNVEYVVLLDWFSSAKDLQIGTTLRSLKDALFKWESKTVLRNEPLVLEGGYENWLLCYPQYTTNAKVTPPPRRQNEEVSISLDFTYPSLEESIPSKPAAQTPPASIEVDENIELISGQNERMGPLNISTPVEPVAASKSDVSPIIQPVPSIKNVPQIDRTKKPAVKLPEEHRIKSESTNHEQQSPQSGKVIPDRSTKPVVFSPTLMLTDEEKARIHAETALLMEKNKQEKELRERQQEEQKEKLRKEEQEQKAKKKQEAEENEITEKQQKAKEEMEKKESEQAKKEDKETSAKRGKEITGVKRQSKSEHETSDAKKSVEDRGKRCPTPEIQKKSTGDVPHTSVTGDSGSGKPFKIKGQPESGILRTGTFREDTDDTERNKAQREPLTRARSEEMGRIVPGLPSGWAKFLDPITGTFRYYHSPTNTVHMYPPEMAPSSAPPSTPPTHKAKPQIPAERDREPSKLK
[1]
  binding: binds

B2: FRIP8^P955A (domain or fragment, UniProt P40818 645-1118)
chain: GRIVPGLPSGWAKFLDPITGTFRYYHSPTNTVHMYPPEMAPSSAPPSTPPTHKAKPQIPAERDREPSKLKRSYSSPDITQAIQEEEKRKPTVTPTVNRENKPTCYPKAEISRLSASQIRNLNPVFGGSGPALTGLRNLGNTCYMNSILQCLCNAPHLADYFNRNCYQDDINRSNLLGHKGEVAEEFGIIMKALWTGQYRYISPKDFKITIGKINDQFAGYSQQDSQELLLFLMDGLHEDLNKADNRKRYKEENNDHLDDFKAAEHAWQKHKQLNESIIVALFQGQFKSTVQCLTCHKKSRTFEAFMYLSLALASTSKCTLQDCLRLFSKEEKLTDNNRFYCSHCRARRDSLKKIEIWKLPPVLLVHLKRFSYDGRWKQKLQTSVDFPLENLDLSQYVIGPKNNLKKYNLFSVSNHYGGLDGGHYTAYCKNAARQRWFKFDDHEVSDISVSSVKSSAAYILFYTSLGPRVTDVAT
FRIP8^P955A (human)
  binding: binds

B3: FRIP8^L1063A (domain or fragment, UniProt P40818 645-1118)
chain: B2 chain with A311P, L419A
FRIP8^L1063A (human)
  binding: binds

B4: FRIP8 with deletion of Ser^718 (ΔS718) (domain or fragment, UniProt P40818 645-1118)
chain: GRIVPGLPSGWAKFLDPITGTFRYYHSPTNTVHMYPPEMAPSSAPPSTPPTHKAKPQIPAERDREPSKLKRSYSPDITQAIQEEEKRKPTVTPTVNRENKPTCYPKAEISRLSASQIRNLNPVFGGSGPALTGLRNLGNTCYMNSILQCLCNAPHLADYFNRNCYQDDINRSNLLGHKGEVAEEFGIIMKALWTGQYRYISPKDFKITIGKINDQFAGYSQQDSQELLLFLMDGLHEDLNKADNRKRYKEENNDHLDDFKAAEHAWQKHKQLNESIIVALFQGQFKSTVQCLTCHKKSRTFEAFMYLSLPLASTSKCTLQDCLRLFSKEEKLTDNNRFYCSHCRARRDSLKKIEIWKLPPVLLVHLKRFSYDGRWKQKLQTSVDFPLENLDLSQYVIGPKNNLKKYNLFSVSNHYGGLDGGHYTAYCKNAARQRWFKFDDHEVSDISVSSVKSSAAYILFYTSLGPRVTDVAT
[2]
  binding: binds

B5: His-tagged FRIP8 (domain or fragment, UniProt P40818 645-1118)
chain: B2 chain with A311P
His-tagged FRIP8 (human)
  binding: binds

B6: FRET-based intramolecular interaction probe of USP8 (FRIP8) (domain or fragment, UniProt P40818 645-1118)
chain: B2 chain with A311P
[3]
  binding: binds

B7: myc-tagged USP8^1–714 with deletion of the WW-like domain (aa 645–684) (domain or fragment, UniProt P40818)
chain: MPAVASVPKELYLSSSLKDLNKKTEVKPEKISTKSYVHSALKIFKTAEECRLDRDEERAYVLYMKYVTVYNLIKKRPDFKQQQDYFHSILGPGNIKKAVEEAERLSESLKLRYEEAEVRKKLEEKDRQEEAQRLQQKRQETGREDGGTLAKGSLENVLDSKDKTQKSNGEKNEKCETKEKGAITAKELYTMMTDKNISLIIMDARRMQDYQDSCILHSLSVPEEAISPGVTASWIEAHLPDDSKDTWKKRGNVEYVVLLDWFSSAKDLQIGTTLRSLKDALFKWESKTVLRNEPLVLEGGYENWLLCYPQYTTNAKVTPPPRRQNEEVSISLDFTYPSLEESIPSKPAAQTPPASIEVDENIELISGQNERMGPLNISTPVEPVAASKSDVSPIIQPVPSIKNVPQIDRTKKPAVKLPEEHRIKSESTNHEQQSPQSGKVIPDRSTKPVVFSPTLMLTDEEKARIHAETALLMEKNKQEKELRERQQEEQKEKLRKEEQEQKAKKKQEAEENEITEKQQKAKEEMEKKESEQAKKEDKETSAKRGKEITGVKRQSKSEHETSDAKKSVEDRGKRCPTPEIQKKSTGDVPHTSVTGDSGSGKPFKIKGQPESGILRTGTFREDTDDTERNKAQREPLTRARSEEMPSSAPPSTPPTHKAKPQIPAERDREPSKLK
[1]
  binding: no binding (tested: 5 μM GST-tagged USP domain)

B8: myc-tagged USP8^1–714 W655S (domain or fragment, UniProt P40818 1-714)
chain: B1 chain with W655S
[1]
  binding: no binding (tested: 5 μM GST-tagged USP domain)
